Data: patent US20060275316A1
Results are given in words; binding and its absence hold for the method and conditions named. Some results given as binding are weak or reduced against the parent protein; the word gives no strength.

Key:
[1] = biological target: T1, CXCR4 on CEM X4/R5 cells (a human T cell line expressing CXCR4 and CCR5) (human), P61073; test: competition with 125I-SDF-1 on CEM X4/R5 cells, gamma counting (figure legend); details: remark: other sources report otherwise
T1 chain: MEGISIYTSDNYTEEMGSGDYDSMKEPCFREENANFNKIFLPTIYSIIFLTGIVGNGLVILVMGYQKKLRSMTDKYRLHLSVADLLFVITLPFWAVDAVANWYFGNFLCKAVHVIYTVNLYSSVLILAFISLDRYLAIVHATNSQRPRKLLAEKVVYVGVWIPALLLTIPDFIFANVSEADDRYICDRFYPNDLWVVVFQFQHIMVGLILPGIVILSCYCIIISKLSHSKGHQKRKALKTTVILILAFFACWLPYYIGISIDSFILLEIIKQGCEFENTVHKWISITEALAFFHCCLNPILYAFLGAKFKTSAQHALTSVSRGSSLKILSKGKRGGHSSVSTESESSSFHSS

[2] = biological target: T1, CXCR4 on CEM X4/R5 cells (a human T …); test: competition with 125I-SDF-1 on CEM X4/R5 cells at 37 C and 4 C, gamma counting; details: remark: other sources report otherwise

GIINTLQKYYCRVRGGRCAVLSCLPKEEQIGKCSTRGRKCCRRKK (peptide, UniProt P81534 23-67, looked up) [recombinant human beta defensin-3 (rhBD-3), P81534 23-67]
binding [1]: binds
binding [2]: binds
